PubChem BioAssay AID1487 (National Center for Advancing Translational Sciences (NCATS), 2009)
Some of the results follow. Shown are side measurements of this screen, not its main read-out; they come without a call. The list favours compounds with an active or inconclusive main result. The note in brackets gives the kind of curve behind each potency; many fits are weak.

Assay: qHTS Assay for Modulators of Lamin A Splicing
Conditions: HeLa LMNA splicing GFP/RFP minigene ratio, 48 h
How it was run: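 S3 HeLa stable clones carrying a lamin A-EGFP splicing minigene plus DsRed2 were seeded at 600 cells/well in Opti-MEM with 2% FBS, pin-dosed and incubated 48 h at 37°C. Acumen cytometry (488 nm) gave the GFP/RFP total-intensity ratio.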

[1] = measured here: GFP splicing reporter channel
[2] = measured here: RFP viability control channel

Compound | AC50 [1] | AC50 [2]
CCOC(=O)c1cccc(NS(=O)(=O)c2ccc3[nH]c4c(c3c2)CCCC4)c1 | 22.4 µM [falling, partial curve] | 35.5 µM [falling, partial curve, poor fit]
Cc1ccccc1N1C(=O)c2cc(S(N)(=O)=O)c(Cl)cc2N[C@H]1C | – | 0.00398 µM [falling, full curve, poor fit]
Cc1cc(NC(=O)CCC(=O)N(c2ccc(F)cc2)C2(C(=O)NC3CCCCC3)CCCC2)no1 | 11.2 µM [rising, partial curve] | 14.1 µM [rising, single point]
Fc1ccc(NCc2nnc3n2CCCCC3)cc1 | 4.47 µM [rising, single point] | 2.82 µM [rising, partial curve]
Cc1nc2ncccn2c1-c1csc(Nc2ccccc2)n1 | – | 15.8 µM [rising, partial curve, poor fit]
CCc1ccc(OCC2c3cc(OC)c(OC)cc3CCN2C(=S)NCCOC)cc1 (stereo unspecified) | 12.6 µM [rising, single point] | 15.8 µM [rising, partial curve]
CCC(CC)C(=O)Nc1ccccc1SCc1cc(=O)c2cccc(C)c2[nH]1 | 1 µM [rising, full curve] | 1.41 µM [rising, full curve, poor fit]
Cc1cc(=O)[nH]c(N/N=C/c2ccc(Cl)c([N+](=O)[O-])c2)n1 | 0.0794 µM [falling, partial curve, poor fit] | 0.02 µM [falling, partial curve, poor fit]
O=S(=O)(NCc1ccc(Cl)cc1)c1ccc2[nH]c3c(c2c1)CCCC3 | 35.5 µM [falling, single point] | 35.5 µM [falling, single point]
COc1cc(OC)c(C2C(C#N)=C(N)OC3=C2C(=O)CC(C)(C)C3)cc1OC (stereo unspecified) | 0.355 µM [falling, partial curve] | –
COC(=O)c1sc2ccccc2c1C(=O)OC | – | 0.708 µM [falling, single point]
C=CCn1c(C)cc(C2=NNC(=NC(C)(C)C)SC2)c1C | – | 10 µM [rising, partial curve, poor fit]
Oc1ccccc1Nc1nc(NCC2CCCO2)c2ccccc2n1 (stereo unspecified) | 1 µM [rising, partial curve] | 22.4 µM [rising, single point]
COCC(=O)Nc1ccccc1-c1ccccc1 | 1.58 µM [rising, full curve, poor fit] | –
Cc1ccc2c(c1)c1c3n2CCN[C@H]3CCC1 | 14.1 µM [falling, single point] | –
COc1ccc(NC(=O)c2[nH]c(C)c(C(C)=O)c2C)cc1S(=O)(=O)N1CCOCC1 | – | 35.5 µM [rising, single point]
O=C(Cc1cccs1)NNC(=S)NC(=O)c1ccc(F)c(F)c1 | – | 35.5 µM [rising, single point]
Cc1ccc(C(NC(=O)NCCCN2CCOCC2)=C(Cl)Cl)cc1F | 3.16 µM [falling, single point] | –

Compound | AC50 [1] | AC50 [2]
COc1ccc(/C=c2/sc3n(c2=O)C(c2ccccc2OC)C2=C(N=3)c3ccccc3CC2)cc1O (stereo unspecified) | 35.5 µM [falling, single point] | 35.5 µM [falling, single point]
Nc1ccc2ncccc2c1N | – | 20 µM [rising, partial curve]
COCCCNC(=O)c1ccc2c(c1)nc(C)n2-c1cccc(C)c1 | 0.00316 µM [falling, full curve, poor fit] | –
c1csc(Cn2nnnc2CN2CCN(c3nc4ccccc4s3)CC2)c1 | – | 35.5 µM [rising, single point]
CCN1/C(=C/c2ccc3cc(C)ccc3[n+]2CC)Sc2ccccc21 | 0.447 µM [rising, full curve, poor fit] | 0.282 µM [rising, partial curve, poor fit]
CC(=O)Nc1ccc(S(=O)(=O)Oc2ccc3c(c2)C(C)=CC(C)(C)N3)cc1 | – | 2.51 µM [rising, full curve]
NS(=O)(=O)c1ccc(CCNC(=O)c2ccccc2[N+](=O)[O-])cc1 | – | 0.141 µM [rising, full curve]
Nc1ccc(N2C(=O)c3ccccc3C2=O)c(Cl)c1 | 11.2 µM [rising, partial curve] | 0.00501 µM [falling, full curve, poor fit]
COc1ccc(N2CCN(CCCNC(=O)c3cc4sccc4n3C)CC2)cc1 | – | 0.631 µM [rising, partial curve]
O=C(CCN1CCC(c2cccs2)=N1)c1cccs1 | – | 17.8 µM [falling, single point]
COc1ccccc1CNc1ncncc1-c1ccc2c(c1)OCO2 | 17.8 µM [falling, partial curve] | 17.8 µM [falling, single point]
O=C(Nc1ccc2oc(-c3ccccc3)nc2c1)c1ccco1 | 20 µM [rising, single point] | –
CC1C/C(=C/c2cccs2)C(=O)/C(=C/c2cccs2)C1 (stereo unspecified) | 35.5 µM [rising, single point] | 35.5 µM [rising, single point]
Cc1ccc(Cl)cc1NC(=O)c1ccc(NC(=O)CCC(=O)O)cc1 | – | 1.12 µM [rising, partial curve, poor fit]
c1ccc2c(c1)[nH]c1c(NCC3CCCO3)ncnc12 (stereo unspecified) | – | 11.2 µM [rising, partial curve]
CCn1c(=N)n(CC(=O)C23CC4CC(CC(C4)C2)C3)c2ccccc21 | – | 31.6 µM [rising, single point]
COc1ccc(CN=C2NC(=O)CC(C(=O)Nc3cc(C)cc(C)c3)S2)cc1 (stereo unspecified) | 14.1 µM [rising, single point] | 17.8 µM [rising, partial curve, poor fit]
CSc1c(SCc2ccccc2)cnn(Cc2ccccc2)c1=O | 14.1 µM [rising, partial curve, poor fit] | 15.8 µM [rising, single point]

Part of the list above in order of SMILES length, rising.
Compound | AC50 [1] | AC50 [2]
O=C(CCN1CCC(c2cccs2)=N1)c1cccs1 | – | 17.8 µM [falling, single point]
NS(=O)(=O)c1ccc(CCNC(=O)c2ccccc2[N+](=O)[O-])cc1 | – | 0.141 µM [rising, full curve]
COc1ccc(CN=C2NC(=O)CC(C(=O)Nc3cc(C)cc(C)c3)S2)cc1 (stereo unspecified) | 14.1 µM [rising, single point] | 17.8 µM [rising, partial curve, poor fit]
